# PubChem BioAssay AID1224830 | NIAID, 2016
# Screen: 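Regulators of TLR4 signalling towards TNF-alpha in macrophage-like cells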 (primary screen)
# Cells: human THP-1 monocytic leukaemia cells, TNF dual-luciferase reporter clone, PMA-differentiated to macrophage-like cells
# Knock-down reagent: siRNA pool against human genes, 50 nM
# Time to read-out: LPS for 4 h, given about 3 days after siRNA transfection
# Treatment: bacterial LPS (TLR4 ligand), 10 ng/ml
# Measurement: 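TNF firefly reporter luminescence divided by renilla, normalised to the plate median, then turned into a robust z-score for each replicate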
# Reading the numbers: TNF reporter robust z-score: higher = stronger TNF reporter response to LPS
# Rule for the call: 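a well is active when its z-score exceeds 2.8 or falls below -1.5; control wells carry no call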
# The deposit covers about 18,000 reagents; this is a part drawn at random. Of all reagents, about 2,900 (16%) were called active. 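Calls are made per well; low scores hint the gene aids the LPS response, high scores that it dampens it.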 Repeated entries: four replicate wells of each siRNA pool.
TNF reporter robust z-score,activity call,target gene
-0.55,inactive,PARP9
-0.43,inactive,PARP9
-1.05,inactive,PARP9
-0.35,inactive,PARP9
-0.65,inactive,PIK3R2
0.65,inactive,PIK3R2
-1,inactive,PIK3R2
-1.12,inactive,PIK3R2
-1.68,active,SMARCA1
-1.9,active,SMARCA1
-1.85,active,SMARCA1
-2.02,active,SMARCA1
-0.01,inactive,PANK1
0.28,inactive,PANK1
0.91,inactive,PANK1
1.8,inactive,PANK1
1.18,inactive,RAB26
1.91,inactive,RAB26
1.67,inactive,RAB26
0.26,inactive,RAB26
-0.09,inactive,BARD1
-0.81,inactive,BARD1
-0.04,inactive,BARD1
0.6,inactive,BARD1
1.72,inactive,KEL
-0.33,inactive,KEL
-1.15,inactive,KEL
-0.3,inactive,KEL
1.04,inactive,FGD2
1.07,inactive,FGD2
1.3,inactive,FGD2
-1.04,inactive,MYLK4
0.24,inactive,MYLK4
0.5,inactive,MYLK4
-0.14,inactive,MYLK4
1.04,inactive,COXFA4L2
0.84,inactive,COXFA4L2
1.65,inactive,COXFA4L2
2.5,inactive,COXFA4L2
-1.65,active,IQCF1
-1.12,inactive,IQCF1
-1.47,inactive,IQCF1
-1.28,inactive,IQCF1
0.53,inactive,UIMC1
-0.17,inactive,UIMC1
-1.18,inactive,UIMC1
-0.48,inactive,UIMC1
-0.86,inactive,MORF4L1
-1.21,inactive,MORF4L1
-0.57,inactive,MORF4L1
-0.23,inactive,MORF4L1
-0.28,inactive,MIX23
-0.99,inactive,MIX23
-0.04,inactive,MIX23
-0.31,inactive,MIX23
0.73,inactive,RNF216
0.12,inactive,RNF216
-0.41,inactive,RNF216
-0.3,inactive,RNF216
0.75,inactive,CST6
-0.03,inactive,CST6
0.17,inactive,CST6
0.27,inactive,CST6
-0.17,inactive,UPK1A
3.66,active,UPK1A
0.88,inactive,UPK1A
1.12,inactive,UPK1A
-1.04,inactive,GEMIN4
-0.69,inactive,GEMIN4
0.16,inactive,GEMIN4
-0.68,inactive,GEMIN4
-1.75,active,KIR2DL5A
-1.47,inactive,KIR2DL5A
-1.86,active,KIR2DL5A
-1.56,active,KIR2DL5A
-0.31,inactive,TSSK1B
-0.34,inactive,TSSK1B
-0.38,inactive,TSSK1B
-0.13,inactive,TSSK1B
-1.62,active,SKIDA1
-0.5,inactive,SKIDA1
-0.95,inactive,SKIDA1
-0.56,inactive,SKIDA1
,inactive,CARF
1.19,inactive,CARF
2.41,inactive,CARF
4.31,active,CARF
3.34,active,CARF
-1.29,inactive,THOP1
-1.38,inactive,THOP1
-1.65,active,THOP1
-1,inactive,THOP1
-0.82,inactive,FN3KRP
-0.16,inactive,FN3KRP
-0.43,inactive,FN3KRP
0.08,inactive,FN3KRP
-0.69,inactive,RNF151
0.69,inactive,RNF151
-0.36,inactive,RNF151
-1.01,inactive,RNF151
0.52,inactive,PPP1CA
2.05,inactive,PPP1CA
1.24,inactive,PPP1CA
2.68,inactive,PPP1CA
1.01,inactive,ESPNL
2.22,inactive,ESPNL
1.59,inactive,ESPNL
1.84,inactive,ESPNL
-0.01,inactive,HFE
-0.47,inactive,HFE
-0.96,inactive,HFE
-0.31,inactive,HFE

Part of the list above in another layout:
THOP1
- TNF reporter robust z-score: -1.29
- activity call: inactive

THOP1
- TNF reporter robust z-score: -1.38
- activity call: inactive

THOP1
- TNF reporter robust z-score: -1.65
- activity call: active

THOP1
- TNF reporter robust z-score: -1
- activity call: inactive

FN3KRP
- TNF reporter robust z-score: -0.82
- activity call: inactive

FN3KRP
- TNF reporter robust z-score: -0.16
- activity call: inactive

FN3KRP
- TNF reporter robust z-score: -0.43
- activity call: inactive

FN3KRP
- TNF reporter robust z-score: 0.08
- activity call: inactive

RNF151
- TNF reporter robust z-score: -0.69
- activity call: inactive
